Variants at the background level are over-represented here.
B1: tRNA (parent)
chain: GUUCCGUUGGCGUAAUGGUAACGCGUCUCCCUCCUAAGGAGAAGACUGCGGGUUCGAGUCCCGUACGGAACG

Variants of: B1
Test: yeast fitness relative to wild type (ratio to wild type); higher = fitter; tRNA-Arg(CCU), competitive growth, 37 C, YPD
Procedure, shortened: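 Genotype frequency changes were the basis for Darwinian fitness relative to wild type. The frequencies came from 100-nucleotide paired-end sequencing of gene amplicons from the start population and each end population of pooled yeast strains with tRNA-Arg(CCU) gene variants at the native locus. Competition ran in YPD at 37°C for 24 hours in six replicates, genotypes needed ≥ 100 starting reads, and estimates < 0.5 were set to 0.5.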

Going from U3G C31U to G9A A14U C46G C55U A69C, the yeast fitness falls from 1 to ≤ 0.5.

G17A A36U and U2A C31U A36U A69C cannot be ordered by yeast fitness: ≤ 0.5 for the first, ≤ 0.5 for the second.

First: C22G C29G G44C G56A A57G A70U
Second: U2A G17C A70U
The yeast fitness of the first is lower: ≤ 0.5 for the first, 0.572 for the second.

Going from U28G U59A A70C to U28G C31G G39A, the yeast fitness rises from ≤ 0.5 to 0.578.

A43G C49U G52A C55G C66G A70C and C11A U13G C24G C34G G63A A65G cannot be ordered by yeast fitness: ≤ 0.5 for the first, ≤ 0.5 for the second.

C4A U7A G18C and C33G G52A G56U cannot be ordered by yeast fitness: ≤ 0.5 for the first, ≤ 0.5 for the second.

First: A45C U47A C66U
Second: C11U A15U C27G C55G
The yeast fitness of the first is higher: 0.595 for the first, ≤ 0.5 for the second.

C31G A57U G58C and U8G C11A A36U G51A G56A C62G cannot be ordered by yeast fitness: ≤ 0.5 for the first, ≤ 0.5 for the second.

C11G A43G A45C G50C C61U and C4A A40C A43C C49U C61U cannot be ordered by yeast fitness: ≤ 0.5 for the first, ≤ 0.5 for the second.

Compared with G39A A43C, C4G G23C G58A is lower in yeast fitness: 0.796 for the first, ≤ 0.5 for the second.

Going from C24G A43G to C4G U7C A43U, the yeast fitness falls from 0.573 to ≤ 0.5.

C11G A20G A21G G23C C30U C34A G51A U53C and A15C U16A A21G U26A C30U C61A C66U cannot be ordered by yeast fitness: ≤ 0.5 for the first, ≤ 0.5 for the second.

G6A A45C C49A C55U and G6A G23A C27U A45C C60A cannot be ordered by yeast fitness: ≤ 0.5 for the first, ≤ 0.5 for the second.

C11A A20G C60A and C29G C30G U32C A36U C55U cannot be ordered by yeast fitness: ≤ 0.5 for the first, ≤ 0.5 for the second.

C4U G6A U8G C31U U64C and A14G G17A G23A U28G A45C cannot be ordered by yeast fitness: ≤ 0.5 for the first, ≤ 0.5 for the second.

C29A C30U G38A and A37G A40U G48C G58A A70U cannot be ordered by yeast fitness: ≤ 0.5 for the first, ≤ 0.5 for the second.

C4A A14U A70U and A14G A21U A43G U53C C55U cannot be ordered by yeast fitness: ≤ 0.5 for the first, ≤ 0.5 for the second.

A20U C30U C66U and C22G C24U C29U A42U cannot be ordered by yeast fitness: ≤ 0.5 for the first, ≤ 0.5 for the second.

First: C22U C61U
Second: A37U U47A G67C
The yeast fitness of the first is higher: 0.72 for the first, ≤ 0.5 for the second.

U2C A15C C24A G41C G68A and C31G C34A C66A G67A A70G cannot be ordered by yeast fitness: ≤ 0.5 for the first, ≤ 0.5 for the second.

Compared with A15C A37C G50A U59C, C27G U59G is higher in yeast fitness: ≤ 0.5 for the first, 0.641 for the second.

Compared with C4G C27U G58C, U7C G9C G51C A69C is lower in yeast fitness: 0.71 for the first, ≤ 0.5 for the second.

C34G C49U U54C and U7A A15U C30G A42C U59A C60U cannot be ordered by yeast fitness: ≤ 0.5 for the first, ≤ 0.5 for the second.

G25C U35C A42G G58C and G10C A14G A45C cannot be ordered by yeast fitness: ≤ 0.5 for the first, ≤ 0.5 for the second.

A21U C22U C30G U59G A65U and U3C C30U G44A C61U cannot be ordered by yeast fitness: ≤ 0.5 for the first, ≤ 0.5 for the second.

A36G A37G A65U and C31G G51C C62A cannot be ordered by yeast fitness: ≤ 0.5 for the first, ≤ 0.5 for the second.

Going from G25A C27G C61G to G9A C24G A37C U64A, the yeast fitness falls from 0.574 to ≤ 0.5.

G23U C24U U35G and C11G A20C C24U C34G A57U cannot be ordered by yeast fitness: ≤ 0.5 for the first, ≤ 0.5 for the second.

G12C U13G C34G and C22U A36G C61A C66U cannot be ordered by yeast fitness: ≤ 0.5 for the first, ≤ 0.5 for the second.

Going from U7A A37G A40G A43G G52C G56A U59G to G12A C55G, the yeast fitness rises from ≤ 0.5 to 0.639.

C24A A43U G50A G67A and C4G A20C C22U cannot be ordered by yeast fitness: ≤ 0.5 for the first, ≤ 0.5 for the second.

G12A C30A A37C G38C C55G A70U and C11A C46U G48A C55U U59A cannot be ordered by yeast fitness: ≤ 0.5 for the first, ≤ 0.5 for the second.

A21U C30A C34G and U8C A37C G39C cannot be ordered by yeast fitness: ≤ 0.5 for the first, ≤ 0.5 for the second.

First: C11U G50A A70U
Second: G56A C60G
The yeast fitness of the first is higher: 0.702 for the first, 0.681 for the second.

First: C22U G38C C46U
Second: U2G U8A G23A U26G A43G
The yeast fitness of the first is lower: ≤ 0.5 for the first, 0.576 for the second.

A21U A45U G50C U64G and G9C U16A C49U G68A cannot be ordered by yeast fitness: ≤ 0.5 for the first, ≤ 0.5 for the second.

C22A G48A C55A G58C and C11G A14G G18C A20U C33U cannot be ordered by yeast fitness: ≤ 0.5 for the first, ≤ 0.5 for the second.

First: C5A C29U A69U
Second: U7A A14G
The yeast fitness of the first is lower: 0.632 for the first, 0.709 for the second.

First: A15U A65U
Second: U2A U54C C66G
The yeast fitness of the first is higher: 0.775 for the first, ≤ 0.5 for the second.

C11U U53A C62A and C34U C49U U53A cannot be ordered by yeast fitness: ≤ 0.5 for the first, ≤ 0.5 for the second.

G6A A20U G25A C66U and A15U C31A U59A A70G cannot be ordered by yeast fitness: ≤ 0.5 for the first, ≤ 0.5 for the second.

First: C4G A21C U35C A69C
Second: C31U G50A A70U
The yeast fitness of the first is lower: ≤ 0.5 for the first, 0.677 for the second.

C33A A37U C55A and A15C U53C C60A C66A cannot be ordered by yeast fitness: ≤ 0.5 for the first, ≤ 0.5 for the second.

A40G A43U G50C A69U and G10A C29G C66U cannot be ordered by yeast fitness: ≤ 0.5 for the first, ≤ 0.5 for the second.

U3A C33U G50A and U35C A37U A43C C46U C49U cannot be ordered by yeast fitness: ≤ 0.5 for the first, ≤ 0.5 for the second.

Compared with C24A C33G C60G, G23C G39C is higher in yeast fitness: ≤ 0.5 for the first, 0.53 for the second.

U2A U26C C55U C66U and G23C C29G A43U G50A G68C cannot be ordered by yeast fitness: ≤ 0.5 for the first, ≤ 0.5 for the second.

C34U A40C G63A G67C and U28A G51C A57C A69U cannot be ordered by yeast fitness: ≤ 0.5 for the first, ≤ 0.5 for the second.

G12A C30U A37C C46U and A21C C62G G68C cannot be ordered by yeast fitness: ≤ 0.5 for the first, ≤ 0.5 for the second.

U7C G44A U47G G63C and A21C C27U C49U G58C C61A A65U cannot be ordered by yeast fitness: ≤ 0.5 for the first, ≤ 0.5 for the second.

C11U A15U C55U C66U and C5A A14U C31G G63A cannot be ordered by yeast fitness: ≤ 0.5 for the first, ≤ 0.5 for the second.

Compared with C5A C29G A43G, U26A G58C is higher in yeast fitness: ≤ 0.5 for the first, 0.98 for the second.

U3A A37C G44C A45U and U7G G52A C55U G67A cannot be ordered by yeast fitness: ≤ 0.5 for the first, ≤ 0.5 for the second.

Going from A37C G51A to G10A A14C A20G U26G C31G C34G A42U A43C G50C, the yeast fitness falls from 0.605 to ≤ 0.5.

A21C C27U C49G U64C and U3A C27A C30U G41C A43U C49A cannot be ordered by yeast fitness: ≤ 0.5 for the first, ≤ 0.5 for the second.

C29U U32C A40U G41A and G25U G68A A70C cannot be ordered by yeast fitness: ≤ 0.5 for the first, ≤ 0.5 for the second.

Compared with U3A C49U C55A C66U, U2A C5U C66U is higher in yeast fitness: ≤ 0.5 for the first, 0.661 for the second.

C24U U28C A36C U53C C60A and C5A U7G C29G C33U G44C A69C cannot be ordered by yeast fitness: ≤ 0.5 for the first, ≤ 0.5 for the second.

U2A G9A A37C A42C and G38C C46A U59C G68A cannot be ordered by yeast fitness: ≤ 0.5 for the first, ≤ 0.5 for the second.

C5G A36U C60G G63C and C5A A14U A21C C61U cannot be ordered by yeast fitness: ≤ 0.5 for the first, ≤ 0.5 for the second.

A15C G17A G18A A36C C55U G63A C66A and C11G C61A G67A cannot be ordered by yeast fitness: ≤ 0.5 for the first, ≤ 0.5 for the second.

Compared with C27U G52C G67A, U7G C24G C27U C29A is higher in yeast fitness: ≤ 0.5 for the first, 0.6 for the second.

A37C G39C C66U and U13A G52C C62G cannot be ordered by yeast fitness: ≤ 0.5 for the first, ≤ 0.5 for the second.

A15C C27U C33U G51A G67A and A14G C24A A57U C60A G68C cannot be ordered by yeast fitness: ≤ 0.5 for the first, ≤ 0.5 for the second.

C24A A37U C60A C66U and G6C A15U U26A cannot be ordered by yeast fitness: ≤ 0.5 for the first, ≤ 0.5 for the second.

C5G U28G A36G G38C C62G C66U and G10A G39A U64C cannot be ordered by yeast fitness: ≤ 0.5 for the first, ≤ 0.5 for the second.

C27G A36G A40G and C22U G25C C27G cannot be ordered by yeast fitness: ≤ 0.5 for the first, ≤ 0.5 for the second.

C4U G12A C27G C34A C49A G68U and U16A A43G A45C cannot be ordered by yeast fitness: ≤ 0.5 for the first, ≤ 0.5 for the second.

Compared with U19A A21G, A14G U28G C29U C61U is lower in yeast fitness: 0.987 for the first, ≤ 0.5 for the second.

A21G U26C A40U C49U and C34G G39C U53G G56A A65U cannot be ordered by yeast fitness: ≤ 0.5 for the first, ≤ 0.5 for the second.

C30A A40G G50A C55U C61G A65C A70C and U3C A20G C29G C55U A65G A69C cannot be ordered by yeast fitness: ≤ 0.5 for the first, ≤ 0.5 for the second.

Going from U16A U35A U59C A65C to G58A G67C, the yeast fitness rises from ≤ 0.5 to 0.988.

U3C A21U G38C G67A and A14U U19G C30G cannot be ordered by yeast fitness: ≤ 0.5 for the first, ≤ 0.5 for the second.

C29U A43G C49A G63A and U7C A42C U59A A69U cannot be ordered by yeast fitness: ≤ 0.5 for the first, ≤ 0.5 for the second.

C11G C30U A37C C46U A57U A69U and C4A A20G U28G cannot be ordered by yeast fitness: ≤ 0.5 for the first, ≤ 0.5 for the second.

First: C31G A36C C62U G68A A69C
Second: A20C C60A
The yeast fitness of the first is lower: ≤ 0.5 for the first, 0.587 for the second.

U7A G17A G63C and G12A A40C U54A cannot be ordered by yeast fitness: ≤ 0.5 for the first, ≤ 0.5 for the second.

G44A C49A U59A C66U and U7C A15C G38A A45G G52A cannot be ordered by yeast fitness: ≤ 0.5 for the first, ≤ 0.5 for the second.

G18C C31U A43U U59C and C5G U7G U13A C33G A57C cannot be ordered by yeast fitness: ≤ 0.5 for the first, ≤ 0.5 for the second.

C31U C55U C61U A70G and A15U C27U G50U cannot be ordered by yeast fitness: ≤ 0.5 for the first, ≤ 0.5 for the second.

U2C G12A G18A U28C A42C G56C A65C C66A and C29G U59A C60G C62U cannot be ordered by yeast fitness: ≤ 0.5 for the first, ≤ 0.5 for the second.

First: C4A G18C C29A C31A
Second: C5U A45C C49G A69C
The yeast fitness of the first is higher: 0.562 for the first, ≤ 0.5 for the second.

U13A A15C U54G C66G G67C and C5U A14C C46A C61G cannot be ordered by yeast fitness: ≤ 0.5 for the first, ≤ 0.5 for the second.

With U35C G38A A42U G58C the yeast fitness was ≤ 0.5.
